# Data from US20210315840A1, “SOLID ORAL DOSAGE FORMS OF KETAMINE DERIVATIVES” (priority 2017, published 2021).
# At least one structure is not confirmed: it was looked up by name or label, or the drawing left a doubt.
# Key:
# [1] = Plasma protein binding, equilibrium dialysis, mouse; assay type: in vitro ADME; conditions: 100% plasma
# [2] = Plasma protein binding, equilibrium dialysis, rat; assay type: in vitro ADME; conditions: 100% plasma
# [3] = Plasma protein binding, equilibrium dialysis, dog; assay type: in vitro ADME; conditions: 100% plasma
# [4] = Plasma protein binding, equilibrium dialysis, human; assay type: in vitro ADME; conditions: 100% plasma
# Caco-2 = conditions: with transporter inhibitor elacridar
smiles,measurement,setting,value
"N[C@@]1(c2ccccc2Cl)CCC[C@@H](O)C1=O [2R,6R-hydroxynorketamine, 2R,6R-2-(2-Chlorophenyl)-2-(amino)-6-hydroxycyclohexanone]",PPB (in words),[1],low
same,PPB (in words),[2],low
same,PPB (in words),[3],low
same,PPB (in words),[4],low
same,Efflux ratio +elacridar,Caco-2,1.15
